Values of other authors as cited in PMC3561686 (Basic & Clinical Pharmacology & Toxicology, 2012).

Tested on: CYP3A
Conditions: cited from earlier work

CC(C)c1c(C(=O)Nc2ccccc2)c(-c2ccccc2)c(-c2ccc(F)cc2)n1CC[C@@H](O)C[C@@H](O)CC(=O)O [atorvastatin]
Change in prasugrel AM formation or the inhibition of platelet aggregation when prasugrel was administered with the drug: no change
